Experimental data taken from patent US20250002954A1, “Novel Compound, Use Thereof, and Method for Producing Same, and Compound-Containing Composition, Method for Producing 4-Trehalosamine, and Microorganism” (Microbial Chemistry Research Foundation, priority 2021, published 2025).
Some of these results come from one statement about several compounds together.

Tested on: Bacillus subtilis 168
Test: Evaluation of Bacillus subtilis protective activity in freeze-dried condition
Assay type: cell-based
Settings: 6% (final concentration 3%) added
Procedure: Using test samples 1 to 5 containing Bacillus subtilis prepared in the following manner, microorganism-protective activity with trehalose or 4-trehalosamine in a freeze-dried condition was evaluated.
Frozen stock of Bacillus subtilis (Bacillus subtilis 168 (obtained from ATCC)) was inoculated in 10 mL of Luria-Bertani (LB) culture medium (manufactured by Difco) and cultured at 37° C. for 24 hours while shaking it at 220 rpm. After culture, it was centrifuged at 3,000×g for 5 minutes, washed once with 10 mL of water, and then suspended in 10 mL of water, thus obtaining Bacillus subtilis suspension. 50 μL of water was added to and mixed with 50 μL of this Bacillus subtilis suspension, and the mixture was left to stand at 4° C. for 20 hours, preparing control (NF).
After Bacillus subtilis suspension was prepared in a similar manner to test sample 1, 50 μL of 6% aqueous solution of trehalose was added to and mixed with 50 µL of the Bacillus subtilis suspension, and the mixture was frozen at −80° C. for 10 minutes. […]
Wells in which the number of colonies was measurable were selected and the numbers (relative numbers) of live bacterial cells per well on test samples 1, 2, 4, and 5 when the number of live bacterial cells per well on test sample 3 (FD) was “1” were calculated in consideration of the dilution concentrations of those test samples.

| SMILES | improvement of viability after freeze drying [times] |
| --- | --- |
| OC[C@H]1O[C@H](O[C@H]2O[C@H](CO)[C@@H](O)[C@H](O)[C@H]2O)[C@H](O)[C@@H](O)[C@@H]1O [trehalose, reference compound] | ≥ 10 |
| N[C@H]1[C@H](O)[C@@H](O)[C@@H](O[C@H]2O[C@H](CO)[C@@H](O)[C@H](O)[C@H]2O)O[C@@H]1CO [4-trehalosamine] | ≥ 10 |
